Assay results: the supplement of paper PMC12823440, “Inhibitors supercharge kinase turnover through native proteolytic circuits” (Nature, 2025)
This is one part of the list. Hit calls seldom repeat between salt and free forms of one compound.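 In K562 cells expressing nanoluciferase-fused kinases, luminescence was recorded at 4 h intervals between 2 and 18 h, normalized as percent of control with DMSO at 100% and a positive control at 0%. A significant (2 sigma) signal drop marks a time point as decreased. The authors' rule for a hit is not shown and takes in more than the number of time points.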

Amino acid sequences for entries named in this document (tags omitted). A change or cut given only in a name is not applied to a line headed by its entry.
UniProt Q9BRS2: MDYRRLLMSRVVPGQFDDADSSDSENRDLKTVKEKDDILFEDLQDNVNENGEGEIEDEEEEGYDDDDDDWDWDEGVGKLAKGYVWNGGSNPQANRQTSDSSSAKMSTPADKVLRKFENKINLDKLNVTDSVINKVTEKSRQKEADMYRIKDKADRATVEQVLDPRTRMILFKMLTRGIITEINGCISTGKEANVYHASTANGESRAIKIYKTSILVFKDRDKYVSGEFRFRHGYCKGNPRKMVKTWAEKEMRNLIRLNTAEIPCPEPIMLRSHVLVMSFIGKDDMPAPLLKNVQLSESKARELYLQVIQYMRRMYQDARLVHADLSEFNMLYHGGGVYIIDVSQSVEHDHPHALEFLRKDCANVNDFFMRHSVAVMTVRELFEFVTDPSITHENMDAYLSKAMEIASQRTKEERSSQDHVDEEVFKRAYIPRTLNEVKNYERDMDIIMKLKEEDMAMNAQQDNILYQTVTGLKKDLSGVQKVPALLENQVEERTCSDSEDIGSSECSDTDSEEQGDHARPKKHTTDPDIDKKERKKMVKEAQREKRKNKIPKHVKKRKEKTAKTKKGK
UniProt Q01974, whole entry: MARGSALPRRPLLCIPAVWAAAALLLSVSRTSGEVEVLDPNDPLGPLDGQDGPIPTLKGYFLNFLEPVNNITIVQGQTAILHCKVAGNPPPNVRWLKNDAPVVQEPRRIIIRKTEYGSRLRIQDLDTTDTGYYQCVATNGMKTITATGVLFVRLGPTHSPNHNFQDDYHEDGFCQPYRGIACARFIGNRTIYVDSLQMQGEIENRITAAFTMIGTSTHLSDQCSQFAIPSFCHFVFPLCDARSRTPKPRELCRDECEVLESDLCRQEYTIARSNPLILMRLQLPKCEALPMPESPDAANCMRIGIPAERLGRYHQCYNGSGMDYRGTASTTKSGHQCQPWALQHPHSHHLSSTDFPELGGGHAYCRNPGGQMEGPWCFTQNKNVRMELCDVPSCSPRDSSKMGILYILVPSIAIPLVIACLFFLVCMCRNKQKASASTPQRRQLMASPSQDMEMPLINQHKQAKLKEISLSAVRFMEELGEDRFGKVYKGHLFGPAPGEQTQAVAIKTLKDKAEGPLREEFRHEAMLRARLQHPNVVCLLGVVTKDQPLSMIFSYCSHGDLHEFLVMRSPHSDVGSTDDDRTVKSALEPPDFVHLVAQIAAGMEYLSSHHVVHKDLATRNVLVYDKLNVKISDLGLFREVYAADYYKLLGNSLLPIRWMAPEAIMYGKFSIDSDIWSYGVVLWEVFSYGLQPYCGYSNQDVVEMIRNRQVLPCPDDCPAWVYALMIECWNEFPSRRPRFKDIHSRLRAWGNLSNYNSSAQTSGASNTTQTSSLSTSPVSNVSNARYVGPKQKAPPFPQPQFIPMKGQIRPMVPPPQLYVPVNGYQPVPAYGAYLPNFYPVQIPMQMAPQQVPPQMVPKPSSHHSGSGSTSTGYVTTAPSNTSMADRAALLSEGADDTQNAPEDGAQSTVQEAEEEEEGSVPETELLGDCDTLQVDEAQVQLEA
UniProt Q15418, whole entry: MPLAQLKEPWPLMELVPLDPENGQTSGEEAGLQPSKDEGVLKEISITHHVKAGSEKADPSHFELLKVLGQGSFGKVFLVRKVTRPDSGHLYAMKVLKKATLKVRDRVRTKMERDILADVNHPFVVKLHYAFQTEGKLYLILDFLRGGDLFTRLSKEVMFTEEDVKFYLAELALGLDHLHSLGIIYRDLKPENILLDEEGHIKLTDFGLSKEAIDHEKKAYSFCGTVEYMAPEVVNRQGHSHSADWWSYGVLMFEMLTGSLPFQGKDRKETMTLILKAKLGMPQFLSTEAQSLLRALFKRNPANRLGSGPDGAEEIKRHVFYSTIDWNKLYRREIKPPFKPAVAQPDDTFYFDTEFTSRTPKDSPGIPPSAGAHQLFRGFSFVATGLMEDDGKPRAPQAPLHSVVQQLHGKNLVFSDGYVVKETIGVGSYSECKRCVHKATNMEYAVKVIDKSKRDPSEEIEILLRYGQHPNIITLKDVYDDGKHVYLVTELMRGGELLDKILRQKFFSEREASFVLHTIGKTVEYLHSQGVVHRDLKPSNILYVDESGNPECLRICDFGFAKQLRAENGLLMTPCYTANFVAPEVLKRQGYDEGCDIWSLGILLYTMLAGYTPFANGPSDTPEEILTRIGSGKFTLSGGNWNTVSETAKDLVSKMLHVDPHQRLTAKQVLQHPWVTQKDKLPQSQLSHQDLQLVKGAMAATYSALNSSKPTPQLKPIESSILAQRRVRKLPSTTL
UniProt P42680: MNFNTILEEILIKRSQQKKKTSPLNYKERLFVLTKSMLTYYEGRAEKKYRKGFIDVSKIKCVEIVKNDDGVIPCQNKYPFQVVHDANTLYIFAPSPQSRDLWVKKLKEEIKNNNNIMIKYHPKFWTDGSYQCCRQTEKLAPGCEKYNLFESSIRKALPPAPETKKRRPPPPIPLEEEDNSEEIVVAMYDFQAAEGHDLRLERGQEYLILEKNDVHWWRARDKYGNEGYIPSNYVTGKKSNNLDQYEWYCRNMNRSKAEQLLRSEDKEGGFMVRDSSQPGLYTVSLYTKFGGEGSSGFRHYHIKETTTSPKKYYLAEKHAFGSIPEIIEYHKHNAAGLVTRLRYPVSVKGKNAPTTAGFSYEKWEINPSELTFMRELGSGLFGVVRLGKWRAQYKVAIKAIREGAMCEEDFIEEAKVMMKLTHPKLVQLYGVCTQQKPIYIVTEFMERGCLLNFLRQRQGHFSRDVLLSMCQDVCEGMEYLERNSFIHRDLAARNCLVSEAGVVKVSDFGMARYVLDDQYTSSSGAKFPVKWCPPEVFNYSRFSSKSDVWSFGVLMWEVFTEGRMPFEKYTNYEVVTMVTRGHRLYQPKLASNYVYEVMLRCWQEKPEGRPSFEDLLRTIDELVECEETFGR
UniProt P29597: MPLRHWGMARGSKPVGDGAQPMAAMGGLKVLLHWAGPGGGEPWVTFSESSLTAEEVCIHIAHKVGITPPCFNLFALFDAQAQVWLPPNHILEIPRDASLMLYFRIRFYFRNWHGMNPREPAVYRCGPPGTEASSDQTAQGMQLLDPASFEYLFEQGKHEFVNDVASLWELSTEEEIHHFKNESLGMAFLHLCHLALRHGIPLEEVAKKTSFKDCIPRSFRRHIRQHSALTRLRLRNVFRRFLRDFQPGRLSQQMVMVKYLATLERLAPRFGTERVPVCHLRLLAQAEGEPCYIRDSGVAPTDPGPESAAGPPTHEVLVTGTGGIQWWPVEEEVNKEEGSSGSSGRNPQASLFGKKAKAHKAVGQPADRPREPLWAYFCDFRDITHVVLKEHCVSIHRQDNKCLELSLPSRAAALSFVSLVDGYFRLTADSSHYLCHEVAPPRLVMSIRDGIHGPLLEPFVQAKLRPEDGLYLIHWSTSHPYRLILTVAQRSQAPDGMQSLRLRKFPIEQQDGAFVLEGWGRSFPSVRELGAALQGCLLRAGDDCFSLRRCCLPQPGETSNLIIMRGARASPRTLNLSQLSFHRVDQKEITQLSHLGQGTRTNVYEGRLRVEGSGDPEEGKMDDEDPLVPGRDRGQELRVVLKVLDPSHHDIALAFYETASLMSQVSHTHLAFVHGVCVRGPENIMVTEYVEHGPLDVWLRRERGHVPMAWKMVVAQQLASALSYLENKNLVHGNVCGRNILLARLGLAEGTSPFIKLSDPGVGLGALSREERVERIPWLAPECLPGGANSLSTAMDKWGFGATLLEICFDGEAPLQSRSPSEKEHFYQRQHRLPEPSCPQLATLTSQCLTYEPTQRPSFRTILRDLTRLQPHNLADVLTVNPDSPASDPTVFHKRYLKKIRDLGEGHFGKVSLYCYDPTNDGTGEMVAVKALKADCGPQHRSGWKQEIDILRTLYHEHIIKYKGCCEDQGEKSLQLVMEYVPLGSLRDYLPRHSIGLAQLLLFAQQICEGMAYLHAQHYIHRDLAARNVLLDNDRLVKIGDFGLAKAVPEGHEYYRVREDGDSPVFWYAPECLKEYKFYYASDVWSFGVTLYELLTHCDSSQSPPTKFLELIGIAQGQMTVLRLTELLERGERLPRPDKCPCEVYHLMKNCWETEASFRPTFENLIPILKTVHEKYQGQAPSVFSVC
UniProt Q6PHR2: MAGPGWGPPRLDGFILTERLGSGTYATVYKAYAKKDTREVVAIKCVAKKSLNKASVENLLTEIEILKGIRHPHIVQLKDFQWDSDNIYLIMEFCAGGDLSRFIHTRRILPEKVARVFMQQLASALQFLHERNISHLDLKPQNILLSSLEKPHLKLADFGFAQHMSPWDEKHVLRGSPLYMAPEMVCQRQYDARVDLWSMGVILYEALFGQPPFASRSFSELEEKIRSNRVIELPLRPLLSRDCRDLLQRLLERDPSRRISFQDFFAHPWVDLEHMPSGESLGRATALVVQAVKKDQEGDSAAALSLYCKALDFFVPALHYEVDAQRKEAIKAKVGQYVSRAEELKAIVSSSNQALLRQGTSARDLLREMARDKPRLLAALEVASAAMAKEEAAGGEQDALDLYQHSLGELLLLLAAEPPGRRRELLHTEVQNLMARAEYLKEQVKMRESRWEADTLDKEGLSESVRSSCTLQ
UniProt P07947, whole entry, looked up: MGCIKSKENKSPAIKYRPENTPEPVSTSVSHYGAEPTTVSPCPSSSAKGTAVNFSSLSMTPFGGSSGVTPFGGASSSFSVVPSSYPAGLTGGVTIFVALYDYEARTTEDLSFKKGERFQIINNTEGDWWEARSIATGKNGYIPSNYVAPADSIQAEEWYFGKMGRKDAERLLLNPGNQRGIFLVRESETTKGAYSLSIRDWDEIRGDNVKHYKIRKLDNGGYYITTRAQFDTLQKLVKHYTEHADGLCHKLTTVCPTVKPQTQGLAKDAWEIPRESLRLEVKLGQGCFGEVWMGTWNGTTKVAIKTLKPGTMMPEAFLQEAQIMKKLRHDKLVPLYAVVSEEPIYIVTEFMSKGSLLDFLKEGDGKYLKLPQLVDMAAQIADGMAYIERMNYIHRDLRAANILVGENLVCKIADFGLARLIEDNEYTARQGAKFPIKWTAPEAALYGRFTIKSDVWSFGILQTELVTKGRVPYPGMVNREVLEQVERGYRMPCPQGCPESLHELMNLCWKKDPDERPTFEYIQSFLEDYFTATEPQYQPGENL
UniProt P43403: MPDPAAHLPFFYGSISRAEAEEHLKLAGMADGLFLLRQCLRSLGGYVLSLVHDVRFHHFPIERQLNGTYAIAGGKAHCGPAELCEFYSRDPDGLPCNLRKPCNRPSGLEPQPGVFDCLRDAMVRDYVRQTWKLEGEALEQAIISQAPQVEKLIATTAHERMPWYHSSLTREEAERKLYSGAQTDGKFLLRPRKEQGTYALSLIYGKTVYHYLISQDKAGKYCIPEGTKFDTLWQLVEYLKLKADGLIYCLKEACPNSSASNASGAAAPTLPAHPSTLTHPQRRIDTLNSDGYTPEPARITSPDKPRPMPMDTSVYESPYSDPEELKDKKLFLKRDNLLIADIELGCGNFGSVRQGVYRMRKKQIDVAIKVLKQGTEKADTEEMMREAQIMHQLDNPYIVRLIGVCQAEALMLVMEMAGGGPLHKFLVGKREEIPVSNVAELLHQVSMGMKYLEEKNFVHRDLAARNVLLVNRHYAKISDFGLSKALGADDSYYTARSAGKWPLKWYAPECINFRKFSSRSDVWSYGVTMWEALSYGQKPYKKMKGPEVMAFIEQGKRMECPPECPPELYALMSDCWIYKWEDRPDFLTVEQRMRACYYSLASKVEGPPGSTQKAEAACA
UniProt P11802: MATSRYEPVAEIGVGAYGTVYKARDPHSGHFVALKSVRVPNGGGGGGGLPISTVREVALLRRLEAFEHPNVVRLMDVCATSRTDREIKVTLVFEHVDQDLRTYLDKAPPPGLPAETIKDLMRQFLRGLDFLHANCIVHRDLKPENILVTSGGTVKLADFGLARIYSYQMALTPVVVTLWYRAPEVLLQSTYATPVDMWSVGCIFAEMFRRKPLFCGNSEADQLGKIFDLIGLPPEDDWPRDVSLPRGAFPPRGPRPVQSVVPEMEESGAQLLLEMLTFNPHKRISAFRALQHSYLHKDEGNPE
UniProt P50613: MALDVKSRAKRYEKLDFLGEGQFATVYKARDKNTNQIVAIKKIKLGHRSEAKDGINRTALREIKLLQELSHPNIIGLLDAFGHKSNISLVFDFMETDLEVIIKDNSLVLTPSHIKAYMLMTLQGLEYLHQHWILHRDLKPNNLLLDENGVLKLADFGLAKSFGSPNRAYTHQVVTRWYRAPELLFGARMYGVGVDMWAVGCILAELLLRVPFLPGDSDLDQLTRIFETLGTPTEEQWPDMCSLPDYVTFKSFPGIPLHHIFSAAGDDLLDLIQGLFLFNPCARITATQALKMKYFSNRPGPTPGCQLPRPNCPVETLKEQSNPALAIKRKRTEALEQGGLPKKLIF

How the values were obtained:
[1] = target: RIOK1 (UniProt Q9BRS2); test: kinase-Nluc reporter destabilization hit call (1 = scored as downregulated) (binary); higher = compound decreases kinase abundance; details: K562, 2-18 h
[2] = target: RIPK1 (UniProt Q13546); test: as above; details: K562, 2-18 h
[3] = target: RIPK2 (UniProt O43353); test: as above; details: K562, 2-18 h
[4] = target: ROR2 (UniProt Q01974); test: as above; details: K562, 2-18 h
[5] = target: RPS6KA1 (UniProt Q15418); test: as above; details: K562, 2-18 h
[6] = target: SPHK1 (UniProt Q9NYA1); test: as above; details: K562, 2-18 h
[7] = target: SRC (UniProt P12931); test: as above; details: 2.5 µM; K562; 2-18 h
[8] = target: STK24 (UniProt Q9Y6E0); test: as above; details: K562, 2-18 h
[9] = target: STK38 (UniProt Q15208); test: as above; details: K562, 2-18 h
[10] = target: SYK (UniProt P43405); test: as above; details: K562, 2-18 h
[11] = target: TEC (UniProt P42680); test: as above; details: K562, 2-18 h
[12] = target: TYK2 (UniProt P29597); test: as above; details: K562, 2-18 h
[13] = target: ULK3 (UniProt Q6PHR2); test: as above; details: K562, 2-18 h
[14] = target: YES1 (UniProt P07947); test: as above; details: K562, 2-18 h
[15] = target: ZAK (UniProt Q9NYL2); test: as above; details: K562, 2-18 h
[16] = target: ZAP70 (UniProt P43403); test: as above; details: K562, 2-18 h
[17] = target: CDK4 (UniProt P11802); test: number of time points (of 4; 2 h point missing) at which kinase-Nluc abundance scored as decreased, DMSO-normalised (count); higher = more persistent destabilization; details: K562, 2-18 h
[18] = target: CDK7 (UniProt P50613); test: as above; details: K562, 2-18 h
[19] = target: RET (UniProt P07949); test: kinase-Nluc reporter destabilization hit call (1 = scored as downregulated) (binary); higher = compound decreases kinase abundance; details: K562, 2-18 h
[20] = target: RET_M918T (clone: RET_mut) (UniProt P07949); test: as above; details: K562, 2-18 h

Compound: CC1(C)CNc2cc(NC(=O)c3cccnc3NCc3ccncc3)ccc21 [Motesanib]
- kinase-Nluc reporter destabilization hit call ([1]; 2.5 µM): inactive: 0
- kinase-Nluc reporter destabilization hit call ([2]; 2.5 µM): inactive: 0
- kinase-Nluc reporter destabilization hit call ([3]; 2.5 µM): inactive: 0
- kinase-Nluc reporter destabilization hit call ([4]; 2.5 µM): inactive: 0
- kinase-Nluc reporter destabilization hit call ([5]; 2.5 µM): inactive: 0
- kinase-Nluc reporter destabilization hit call ([6]; 2.5 µM): inactive: 0
- kinase-Nluc reporter destabilization hit call [7]: inactive: 0
- kinase-Nluc reporter destabilization hit call ([8]; 2.5 µM): inactive: 0
- kinase-Nluc reporter destabilization hit call ([9]; 2.5 µM): inactive: 0
- kinase-Nluc reporter destabilization hit call ([10]; 2.5 µM): inactive: 0
- kinase-Nluc reporter destabilization hit call ([11]; 2.5 µM): inactive: 0
- kinase-Nluc reporter destabilization hit call ([12]; 2.5 µM): inactive: 0
- kinase-Nluc reporter destabilization hit call ([13]; 2.5 µM): inactive: 0
- kinase-Nluc reporter destabilization hit call ([14]; 2.5 µM): inactive: 0
- kinase-Nluc reporter destabilization hit call ([15]; 2.5 µM): inactive: 0
- kinase-Nluc reporter destabilization hit call ([16]; 2.5 µM): inactive: 0
- number of time points ([17]; 2.5 µM): 0
- number of time points ([18]; 2.5 µM): 0

Compound: CC(=O)c1c(C)c2cnc(Nc3ccc(N4CCN(C(=O)CCCCCC(=O)N[C@H](C(=O)N5C[C@H](O)C[C@H]5C(=O)NCc5ccc(-c6scnc6C)cc5)C(C)(C)C)CC4)cn3)nc2n(C2CCCC2)c1=O
- kinase-Nluc reporter destabilization hit call ([1]; 2.5 µM): inactive: 0
- kinase-Nluc reporter destabilization hit call ([2]; 2.5 µM): inactive: 0
- kinase-Nluc reporter destabilization hit call ([3]; 2.5 µM): inactive: 0
- kinase-Nluc reporter destabilization hit call ([4]; 2.5 µM): inactive: 0
- kinase-Nluc reporter destabilization hit call ([5]; 2.5 µM): inactive: 0
- kinase-Nluc reporter destabilization hit call ([6]; 2.5 µM): inactive: 0
- kinase-Nluc reporter destabilization hit call [7]: inactive: 0
- kinase-Nluc reporter destabilization hit call ([8]; 2.5 µM): inactive: 0
- kinase-Nluc reporter destabilization hit call ([9]; 2.5 µM): inactive: 0
- kinase-Nluc reporter destabilization hit call ([11]; 2.5 µM): inactive: 0
- kinase-Nluc reporter destabilization hit call ([12]; 2.5 µM): inactive: 0
- kinase-Nluc reporter destabilization hit call ([13]; 2.5 µM): inactive: 0
- kinase-Nluc reporter destabilization hit call ([14]; 2.5 µM): inactive: 0
- kinase-Nluc reporter destabilization hit call ([15]; 2.5 µM): inactive: 0
- kinase-Nluc reporter destabilization hit call ([16]; 2.5 µM): inactive: 0
- number of time points ([17]; 2.5 µM): 0
- number of time points ([18]; 2.5 µM): 1

Compound: COc1cc(Nc2c(C#N)cnc3cc(OCCCN4CCN(C)CC4)c(OC)cc23)c(Cl)cc1Cl [Bosutinib]
- kinase-Nluc reporter destabilization hit call ([19]; 2.5 µM): inactive: 0
- kinase-Nluc reporter destabilization hit call ([20]; 2.5 µM): inactive: 0
- kinase-Nluc reporter destabilization hit call ([1]; 2.5 µM): inactive: 0
- kinase-Nluc reporter destabilization hit call ([2]; 2.5 µM): inactive: 0
- kinase-Nluc reporter destabilization hit call ([3]; 2.5 µM): inactive: 0
- kinase-Nluc reporter destabilization hit call ([4]; 2.5 µM): inactive: 0
- kinase-Nluc reporter destabilization hit call ([5]; 2.5 µM): inactive: 0
- kinase-Nluc reporter destabilization hit call ([6]; 2.5 µM): inactive: 0
- kinase-Nluc reporter destabilization hit call [7]: inactive: 0
- kinase-Nluc reporter destabilization hit call ([8]; 2.5 µM): inactive: 0
- kinase-Nluc reporter destabilization hit call ([9]; 2.5 µM): inactive: 0
- kinase-Nluc reporter destabilization hit call ([10]; 2.5 µM): inactive: 0
- kinase-Nluc reporter destabilization hit call ([11]; 2.5 µM): inactive: 0
- kinase-Nluc reporter destabilization hit call ([12]; 2.5 µM): inactive: 0
- kinase-Nluc reporter destabilization hit call ([13]; 2.5 µM): inactive: 0
- kinase-Nluc reporter destabilization hit call ([14]; 2.5 µM): inactive: 0
- kinase-Nluc reporter destabilization hit call ([16]; 2.5 µM): inactive: 0
- number of time points ([17]; 2.5 µM): 0
- number of time points ([18]; 2.5 µM): 2

Compound: CNC(=O)c1cc(Oc2ccc(NC(=O)Nc3ccc(Cl)c(C(F)(F)F)c3)cc2)ccn1 [Sorafenib (Tosylate)]
- kinase-Nluc reporter destabilization hit call ([19]; 10 µM): inactive: 0
- kinase-Nluc reporter destabilization hit call ([20]; 10 µM): inactive: 0
- kinase-Nluc reporter destabilization hit call ([1]; 10 µM): inactive: 0
- kinase-Nluc reporter destabilization hit call ([2]; 10 µM): inactive: 0
- kinase-Nluc reporter destabilization hit call ([3]; 10 µM): inactive: 0
- kinase-Nluc reporter destabilization hit call ([4]; 10 µM): inactive: 0
- kinase-Nluc reporter destabilization hit call ([5]; 10 µM): inactive: 0
- kinase-Nluc reporter destabilization hit call ([6]; 10 µM): inactive: 0
- kinase-Nluc reporter destabilization hit call ([8]; 10 µM): inactive: 0
- kinase-Nluc reporter destabilization hit call ([9]; 10 µM): inactive: 0
- kinase-Nluc reporter destabilization hit call ([10]; 10 µM): inactive: 0
- kinase-Nluc reporter destabilization hit call ([11]; 10 µM): inactive: 0
- kinase-Nluc reporter destabilization hit call ([12]; 10 µM): inactive: 0
- kinase-Nluc reporter destabilization hit call ([13]; 10 µM): inactive: 0
- kinase-Nluc reporter destabilization hit call ([14]; 10 µM): inactive: 0
- kinase-Nluc reporter destabilization hit call ([15]; 10 µM): inactive: 0
- kinase-Nluc reporter destabilization hit call ([16]; 10 µM): inactive: 0
- number of time points ([17]; 10 µM): 0
- number of time points ([18]; 10 µM): 0

Compound: C[C@@]1(C(=O)Nc2ccc(F)nc2)CCCN1c1nc(Nc2cc(C3CC3)n[nH]2)c2cccn2n1
- kinase-Nluc reporter destabilization hit call ([1]; 10 µM): inactive: 0
- kinase-Nluc reporter destabilization hit call ([2]; 10 µM): inactive: 0
- kinase-Nluc reporter destabilization hit call ([3]; 10 µM): inactive: 0
- kinase-Nluc reporter destabilization hit call ([4]; 10 µM): inactive: 0
- kinase-Nluc reporter destabilization hit call ([5]; 10 µM): inactive: 0
- kinase-Nluc reporter destabilization hit call ([6]; 10 µM): inactive: 0
- kinase-Nluc reporter destabilization hit call ([8]; 10 µM): inactive: 0
- kinase-Nluc reporter destabilization hit call ([9]; 10 µM): inactive: 0
- kinase-Nluc reporter destabilization hit call ([10]; 10 µM): inactive: 0
- kinase-Nluc reporter destabilization hit call ([11]; 10 µM): inactive: 0
- kinase-Nluc reporter destabilization hit call ([12]; 10 µM): inactive: 0
- kinase-Nluc reporter destabilization hit call ([13]; 10 µM): inactive: 0
- kinase-Nluc reporter destabilization hit call ([14]; 10 µM): inactive: 0
- kinase-Nluc reporter destabilization hit call ([15]; 10 µM): inactive: 0
- kinase-Nluc reporter destabilization hit call ([16]; 10 µM): inactive: 0
- number of time points ([17]; 10 µM): 0
- number of time points ([18]; 10 µM): 0

Compound: CN1CCN(c2ccc3nc(-c4c(N)c5c(F)cccc5[nH]c4=O)[nH]c3c2)CC1 [Dovitinib (lactate)]
- kinase-Nluc reporter destabilization hit call ([1]; 2.5 µM): inactive: 0
- kinase-Nluc reporter destabilization hit call ([2]; 2.5 µM): inactive: 0
- kinase-Nluc reporter destabilization hit call ([3]; 2.5 µM): inactive: 0
- kinase-Nluc reporter destabilization hit call ([4]; 2.5 µM): inactive: 0
- kinase-Nluc reporter destabilization hit call ([5]; 2.5 µM): inactive: 0
- kinase-Nluc reporter destabilization hit call ([6]; 2.5 µM): inactive: 0
- kinase-Nluc reporter destabilization hit call [7]: inactive: 0
- kinase-Nluc reporter destabilization hit call ([8]; 2.5 µM): inactive: 0
- kinase-Nluc reporter destabilization hit call ([9]; 2.5 µM): inactive: 0
- kinase-Nluc reporter destabilization hit call ([10]; 2.5 µM): inactive: 0
- kinase-Nluc reporter destabilization hit call ([11]; 2.5 µM): inactive: 0
- kinase-Nluc reporter destabilization hit call ([12]; 2.5 µM): inactive: 0
- kinase-Nluc reporter destabilization hit call ([13]; 2.5 µM): inactive: 0
- kinase-Nluc reporter destabilization hit call ([14]; 2.5 µM): inactive: 0
- kinase-Nluc reporter destabilization hit call ([15]; 2.5 µM): inactive: 0
- kinase-Nluc reporter destabilization hit call ([16]; 2.5 µM): inactive: 0
- number of time points ([17]; 2.5 µM): 0
- number of time points ([18]; 2.5 µM): 0
